Data reported in paper PMC7819943, “Rice protein-binding microarrays: a tool to detect cis-acting elements near promoter regions in rice”.
Some of the results follow.

The sequences below were run against T1, OsSMF1 (Oryza sativa, UniProt Q6ZLB0 1-436) (assay: protein-binding microarray (RPBM); PBS, 2% BSA, 51.3 ng/ul salmon testes DNA, 50 uM zinc acetate, 200 nM TF, 25 C, 1 h; high values mean tight binding). Settings: protein: recombinant; tags: N-terminal polyhistidine and DsRed monomer fusion (pET32a); chain copies: 2; label: CyDye5-dUTP incorporated in the synthesized complementary strand; 3' TTTTT single-stranded linker to array surface; dsDNA, one strand shown.
T1 sequence: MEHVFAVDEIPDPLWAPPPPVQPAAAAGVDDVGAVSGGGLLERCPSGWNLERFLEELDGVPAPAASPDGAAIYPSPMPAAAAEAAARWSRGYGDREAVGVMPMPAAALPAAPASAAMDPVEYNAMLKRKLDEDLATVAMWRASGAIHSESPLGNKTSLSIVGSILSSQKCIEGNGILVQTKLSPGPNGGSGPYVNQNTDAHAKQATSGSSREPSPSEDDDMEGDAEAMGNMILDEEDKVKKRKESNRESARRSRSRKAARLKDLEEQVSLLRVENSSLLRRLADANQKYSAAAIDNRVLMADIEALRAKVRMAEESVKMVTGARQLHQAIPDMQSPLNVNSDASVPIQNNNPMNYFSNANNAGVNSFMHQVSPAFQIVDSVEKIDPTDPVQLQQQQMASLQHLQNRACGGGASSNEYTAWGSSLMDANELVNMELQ
Method in brief: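 Per-feature fluorescence intensity (arbitrary units), read on an Axon 4000B scanner, is the binding signal. Transcription factors carrying an N-terminal polyhistidine tag and DsRed fusion were expressed in E. coli BL21-CodonPlus and purified on Ni–NTA. A custom Agilent array, made double-stranded by primer extension with Cy5-dUTP and blocked with 2% BSA, was incubated with 200 nM protein in PBS, 2% BSA, salmon testes DNA and 50 µM zinc acetate at 25 °C for 1 h and then washed.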

Sequence	binding signal
TTCACCGTGTTCGGCGTCGCTGACATGTTCACCTTCATCGCGGAGTCACCTAGTGCAG	7760 fluorescence intensity (a.u.)
GGATGGATAGAACCAACGGCTGACGTGTACCCGAACGCGCCGGAGTCACCTAGTGCAG	14500 fluorescence intensity (a.u.)
TCCCACCACCACCACCACCAGAGCTAGCGCAGCAACCGCGCGGAGTCACCTAGTGCAG	3420 fluorescence intensity (a.u.)
TACTGCATGCGCAAAGAGTTAATCCGTGGGGCTCGTGGGACGGAGTCACCTAGTGCAG	45300 fluorescence intensity (a.u.)
GAACGTGACTTGTCATACTTGCCACATTACGCTGATCTTTCGGAGTCACCTAGTGCAG	5940 fluorescence intensity (a.u.)
GGTTGCTCCTCGTGTTGGCGTGGTCGTCGTCGTCTTGGTCCGGAGTCACCTAGTGCAG	4000 fluorescence intensity (a.u.)
TCGGCCCTGGTCACGGACGGATGACGCGCGCCCAGTCCCCCGGAGTCACCTAGTGCAG	4460 fluorescence intensity (a.u.)
TTCAACGAGGGGACCGTGGTGACTTCGACAATCTCAACTCCGGAGTCACCTAGTGCAG	3360 fluorescence intensity (a.u.)
GATCGACGGCGACGCCCCTGGAAGGAGCGGAATAGACCACCGGAGTCACCTAGTGCAG	46700 fluorescence intensity (a.u.)
CCGTCCACCGCCGCTCCTCCTGCCTCCGGCCATGCGCTCGCGGAGTCACCTAGTGCAG	3420 fluorescence intensity (a.u.)
TGAAAATTTCAATCCTTTCTTGTCAGCATAGTTCTTTCTGCGGAGTCACCTAGTGCAG	4880 fluorescence intensity (a.u.)
CGCCGCTGCATAGTGCCGCCATCAATATGGGCTTGTTTGGCGGAGTCACCTAGTGCAG	3230 fluorescence intensity (a.u.)
CTAATTAAACAAACACGCGAAATACACGTATATCAAGAAACGGAGTCACCTAGTGCAG	35200 fluorescence intensity (a.u.)
TTTCGTAGCCTTAAAATTACCTCGTCACTGTCTTGTACTCCGGAGTCACCTAGTGCAG	4770 fluorescence intensity (a.u.)
TTATGGGCTCTTGTAAGGAAGAACTGTTCTCTTATCCTAACGGAGTCACCTAGTGCAG	24800 fluorescence intensity (a.u.)
ACATCTCCATCGTTCTCCCCTGCGCCGGTGACGGCGCCGCCGGAGTCACCTAGTGCAG	3360 fluorescence intensity (a.u.)
TCGTTGCCTCGTAACAACCGTCAAAATCAAATCGAGTCCACGGAGTCACCTAGTGCAG	24900 fluorescence intensity (a.u.)
TGCAAATAAATTCTCGTTTGGACCAAGTATCTGACGTATTCGGAGTCACCTAGTGCAG	4510 fluorescence intensity (a.u.)
ATGGAGACCTCGCCACCTCACCGCAAACCACGCCTGCCGCCGGAGTCACCTAGTGCAG	7040 fluorescence intensity (a.u.)
TCCATGCTGGTTTTAGTCCTACGTGACAATACAGTCAGCACGGAGTCACCTAGTGCAG	5640 fluorescence intensity (a.u.)
GATGTGTGTTGTCATCAATATTTTGTACCGCACGTCGTATCGGAGTCACCTAGTGCAG	8360 fluorescence intensity (a.u.)

Sequence	binding signal
TTGTAGATTTGTAGATGTTACTCTTACATGACTCCTTCCTCGGAGTCACCTAGTGCAG	3480 fluorescence intensity (a.u.)
CAAATGCAGACCGGCCGTGGCGTGGCAGGCAGCCATCACACGGAGTCACCTAGTGCAG	4380 fluorescence intensity (a.u.)
TCTTCAATATCAGATTCCTCGTCCTCTGACTCATCATGTTCGGAGTCACCTAGTGCAG	17200 fluorescence intensity (a.u.)
GGGGTGCACATGACACGACTGCTTCCGCGTTTCTTCTCGGCGGAGTCACCTAGTGCAG	6350 fluorescence intensity (a.u.)
TGATCTCTCTCTGTGATTGCGTGGTTATTTCTGGTGCCTTCGGAGTCACCTAGTGCAG	3540 fluorescence intensity (a.u.)
ATGCGAACTAAACACATCCTTGTTGCAATTAAGATGTCATCGGAGTCACCTAGTGCAG	19900 fluorescence intensity (a.u.)
TCTTGCAATGCATAGCCTGCAACAGTCACCCCATCCCATGCGGAGTCACCTAGTGCAG	13300 fluorescence intensity (a.u.)
CCAAACCGAAACCCACCTCCAGCGGGCCCCACCTGTCATCCGGAGTCACCTAGTGCAG	4180 fluorescence intensity (a.u.)
GCTGTGTGATCGTCATCAATTGATCAGCAGAGTACCGTGGCGGAGTCACCTAGTGCAG	3380 fluorescence intensity (a.u.)
CGAACGGCCGGCTGCCACGTCATTTTCGCCGCCCTCTGGGCGGAGTCACCTAGTGCAG	15600 fluorescence intensity (a.u.)
TATTAATATTGTTTGAAAATGAGTCACCATACTCGTTCTACGGAGTCACCTAGTGCAG	7550 fluorescence intensity (a.u.)
GGTGCTCTACCCTGGCCTCTCTGTCAGCCACTTCCTCCCGCGGAGTCACCTAGTGCAG	3750 fluorescence intensity (a.u.)
ACATCATTGCTACTAAGGATAATGGCCTCGGTTAATAAACCGGAGTCACCTAGTGCAG	6240 fluorescence intensity (a.u.)
AATGATAAGCTCTACTACTTGATACACTCAAGACTCTGATCGGAGTCACCTAGTGCAG	3170 fluorescence intensity (a.u.)
ATGGCTGAATCTGTACAAGTGTCGTGAGGTGGAAAATTTCCGGAGTCACCTAGTGCAG	4400 fluorescence intensity (a.u.)
AATGATCAATGCATGATTAATAACTTCTATTGTGTAAACGCGGAGTCACCTAGTGCAG	3340 fluorescence intensity (a.u.)
TTGCCGATATTTTGGTACGTCATCCGTTTATGAGTCGGTGCGGAGTCACCTAGTGCAG	8380 fluorescence intensity (a.u.)
ACTAGATTTATCGTAGAACCATATGTTTAAGATAGACTATCGGAGTCACCTAGTGCAG	28500 fluorescence intensity (a.u.)
AAATCGGCGCACCACCACCGCCCCGCCGTCCACGAATCGACGGAGTCACCTAGTGCAG	3170 fluorescence intensity (a.u.)
GTCAAATGTTGAACGTGAATAGTGCAAAACTACAGTTATTCGGAGTCACCTAGTGCAG	29200 fluorescence intensity (a.u.)
GTCGGCAACGGCAAGGCGCTCTTCTACTGGTTCTTCGAGGCGGAGTCACCTAGTGCAG	3970 fluorescence intensity (a.u.)

Some of the entries above, reformatted:
Sequence | binding signal
TCCCACCACCACCACCACCAGAGCTAGCGCAGCAACCGCGCGGAGTCACCTAGTGCAG | 3420 fluorescence intensity (a.u.)
TGAAAATTTCAATCCTTTCTTGTCAGCATAGTTCTTTCTGCGGAGTCACCTAGTGCAG | 4880 fluorescence intensity (a.u.)
CTAATTAAACAAACACGCGAAATACACGTATATCAAGAAACGGAGTCACCTAGTGCAG | 35200 fluorescence intensity (a.u.)
ACATCTCCATCGTTCTCCCCTGCGCCGGTGACGGCGCCGCCGGAGTCACCTAGTGCAG | 3360 fluorescence intensity (a.u.)
TTGTAGATTTGTAGATGTTACTCTTACATGACTCCTTCCTCGGAGTCACCTAGTGCAG | 3480 fluorescence intensity (a.u.)
GGGGTGCACATGACACGACTGCTTCCGCGTTTCTTCTCGGCGGAGTCACCTAGTGCAG | 6350 fluorescence intensity (a.u.)
ATGCGAACTAAACACATCCTTGTTGCAATTAAGATGTCATCGGAGTCACCTAGTGCAG | 19900 fluorescence intensity (a.u.)
GCTGTGTGATCGTCATCAATTGATCAGCAGAGTACCGTGGCGGAGTCACCTAGTGCAG | 3380 fluorescence intensity (a.u.)
GGTGCTCTACCCTGGCCTCTCTGTCAGCCACTTCCTCCCGCGGAGTCACCTAGTGCAG | 3750 fluorescence intensity (a.u.)
